Assay results published in patent US20240000786A1, “COMPOSITION FOR ENHANCING INTRA-CELLULAR NITRIC OXIDE GENERATION” (INSTITUTE OF LIFE SCIENCES, priority 2020, published 2024).
No constants are given. Whether binding was seen depends on the method and setting. Some entries that bind do so weakly or less than the wild type.

By UniProt entry, the sequences of proteins in these tests, tags left out. Where a name states a change or a piece, a line headed by the entry shows the natural chain unless it says otherwise.
UniProt P35228: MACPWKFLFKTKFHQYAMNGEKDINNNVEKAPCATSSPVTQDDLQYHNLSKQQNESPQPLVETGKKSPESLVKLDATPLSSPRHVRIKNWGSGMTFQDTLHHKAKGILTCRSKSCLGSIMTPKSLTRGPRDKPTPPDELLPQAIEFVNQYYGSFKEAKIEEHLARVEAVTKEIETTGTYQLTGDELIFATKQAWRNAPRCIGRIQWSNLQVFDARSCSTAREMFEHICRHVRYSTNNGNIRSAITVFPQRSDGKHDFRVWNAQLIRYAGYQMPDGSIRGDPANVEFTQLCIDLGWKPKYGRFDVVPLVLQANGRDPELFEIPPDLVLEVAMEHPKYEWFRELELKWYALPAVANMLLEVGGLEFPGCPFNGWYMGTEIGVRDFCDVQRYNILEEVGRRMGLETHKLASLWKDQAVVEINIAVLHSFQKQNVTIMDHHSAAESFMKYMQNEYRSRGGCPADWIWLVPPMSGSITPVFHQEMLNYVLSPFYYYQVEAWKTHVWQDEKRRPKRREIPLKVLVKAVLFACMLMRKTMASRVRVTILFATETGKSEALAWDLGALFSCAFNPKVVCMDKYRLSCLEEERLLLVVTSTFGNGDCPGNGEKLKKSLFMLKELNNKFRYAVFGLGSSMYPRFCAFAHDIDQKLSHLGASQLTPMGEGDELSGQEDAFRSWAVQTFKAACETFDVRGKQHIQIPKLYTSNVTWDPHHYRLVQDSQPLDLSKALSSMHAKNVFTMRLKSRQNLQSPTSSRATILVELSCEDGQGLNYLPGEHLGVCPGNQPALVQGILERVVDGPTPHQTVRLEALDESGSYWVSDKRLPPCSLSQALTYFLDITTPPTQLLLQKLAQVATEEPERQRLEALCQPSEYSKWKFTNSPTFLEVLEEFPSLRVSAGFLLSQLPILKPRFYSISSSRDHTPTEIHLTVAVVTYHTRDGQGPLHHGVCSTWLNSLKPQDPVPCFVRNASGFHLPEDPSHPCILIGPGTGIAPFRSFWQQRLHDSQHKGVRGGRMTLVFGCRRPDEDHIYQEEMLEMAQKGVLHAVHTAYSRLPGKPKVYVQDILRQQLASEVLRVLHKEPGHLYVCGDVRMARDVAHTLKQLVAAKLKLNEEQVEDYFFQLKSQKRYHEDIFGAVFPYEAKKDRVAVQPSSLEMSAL

Key:
[1] = target: T1, recombinant human iNOS oxygenase domain (human, UniProt P35228 82-505); experiment: SPR, iNOS immobilised, NOSIP 1000 to 62.5 nM pre-incubated with 250 nM iNOS peptide PP2 [b]
T1 construct: It was cloned in pET22b, expressed in E. coli BL21 (DE3) and purified on Ni-NTA and by gel filtration; A His tag is implied but never described; In SPR it was immobilised on a GLC chip by amine coupling; also called riNOS; r iNOS

[2] = target: T1, recombinant human iNOS oxygenase domain; experiment: SPR (ProteOn XPR36), iNOS immobilised on a GLC chip, NOSIP 125 nM as analyte, no peptide [a]
[3] = target: T1, recombinant human iNOS oxygenase domain; experiment: SPR, iNOS immobilised, rNOSIP 250 nM as analyte, no small molecule
[4] = target: T1, recombinant human iNOS oxygenase domain; experiment: SPR, iNOS immobilised, NOSIP 125 nM (FIG. 2(a))

Measured: binding

B1: recombinant Nitric oxide synthase interacting protein (NOSIP) (other)
chain: HMTRHGKNCTAGAVYTYHEKKKDTAASGYGTQNIRLSRDAVKDFDCCCLSLQPCHDPVVTPDGYLYEREAILEYILHQKKEIARQMKAYEKQRGTRREEQKELQRAASQDHVRGFLEKESAIVSRPLNPFTAKALSGTSPDDVQPGPSVGPPSKDKDKVLPSFWIPSLTPEAKATKLEKPSRTVTCPMSGKPLRMSDLTPVHFTPLDSSVDRVGLITRSERYVCAVTRDSLSNATPCAVLRPSGAVVTLECVEKLIRKDMVDPVTGDKLTDRDIIVLQRGGTGFAGSGVKLQAEKSRPVMQALE
notes: It was synthesized by GenScript, cloned in pET22b, expressed in E. coli BL21 (DE3) and purified on Ni-NTA and by gel filtration; A His tag is implied but never described; also called rNOSIP; recombinant NOSIP
binds: all assays above
